Measured values from paper PMC4366279 (PLoS ONE, 2015).
Where a chain is given by its changes, count along the chain named. Results are given in words; binding and its absence hold for the method and conditions named. Binding seen in cells or lysates may run through a third protein. Some entries that bind do so weakly or less than the wild type.

How the values were obtained:
Assay in all cases: pull-down; His6-TbREL1 TNT mixture mixed with an equal volume of untagged KREPA2 TNT mixture, captured on magnetic His-tag isolation beads (Dynabeads); binding buffer 50 mM NaPO4 pH 8.0, 300 mM NaCl, 0.01% Tween 20; 20-30 min at 4°C; three washes; [35S]-methionine-labelled proteins on 10% SDS-PAGE, PhosphorImager; KREPA2-only control for background
[1] = target: T1, TbREL1 E410A (Trypanosoma brucei) (UniProt P86926)
T1 sequence (chain, [35S]-methionine labelled): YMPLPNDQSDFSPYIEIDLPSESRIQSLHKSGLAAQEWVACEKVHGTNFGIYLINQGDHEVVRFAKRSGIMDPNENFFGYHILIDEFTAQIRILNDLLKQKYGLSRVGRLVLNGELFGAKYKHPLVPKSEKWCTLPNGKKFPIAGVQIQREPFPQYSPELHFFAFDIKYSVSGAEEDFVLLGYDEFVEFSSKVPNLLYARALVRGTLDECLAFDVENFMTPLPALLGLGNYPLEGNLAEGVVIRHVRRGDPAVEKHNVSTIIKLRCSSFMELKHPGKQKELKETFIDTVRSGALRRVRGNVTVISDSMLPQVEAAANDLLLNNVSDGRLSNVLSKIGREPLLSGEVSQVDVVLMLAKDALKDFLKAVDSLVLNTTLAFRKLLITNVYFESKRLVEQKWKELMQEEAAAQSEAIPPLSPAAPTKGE

[2] = target: T2, TbREL1 K443A (Trypanosoma brucei) (UniProt P86926)
T2 sequence (chain, [35S]-methionine labelled): T1 sequence (chain, [35S]-methionine labelled) with A366E, K399A

[3] = target: T3, TbREL1 E81A (Trypanosoma brucei) (UniProt P86926)
T3 sequence (chain, [35S]-methionine labelled): T1 sequence (chain, [35S]-methionine labelled) with E37A, A366E

[4] = target: T4, TbREL1 S303A (Trypanosoma brucei) (UniProt P86926)
T4 sequence (chain, [35S]-methionine labelled): T1 sequence (chain, [35S]-methionine labelled) with S259A, A366E

Measured: binding

B1: KREPA2 (natural protein)
chain: MYRRFFRSAAVKHLGTTSAQCLMRATKYPCGAMCRNASSCHPQTLGYQQRFQSTTDKKFHCSVCKKPFRLEMAAKLHLQQAHGGDGSVEAGPGPGVEASSVNVVSTPVPSPISPVERTFVDEEERRPRRMRPTPKPLHQPDRDIPAAAMEEMLGVWDKIGLNRLEGNFVHSTMVMKVFAAPPDVSEIPLYEHVAPEGENPFDSLDHMTTGTVDATYVGHDAFAEVDLVDPFVAAPDQTLNPFRAGKVRNPFTRISPTQREVVKPLQPPQPKEEPLKAPVTPFGQLPMFGQTREPSASFAAAAVSVQAAANPNEVSSPFAAAVSSSPFVGQVASPFAPAQDVAGSPFEASPCAASSPFVTAGGQETSPFAAPSTPASFGQGSLFPPMGTGAPGFTAITETEQRQQELEHGCPTCGKKFSTFEGAAMHSKSKHGIVLESKKVKDRLNRKGVPDLPAYVPSPVDLSSTSPFGTRSAIGASWAETELIPHAQCVSNITIVGRVLDVSQASENVSHVTVFVEGERSGEEETLTLCCFGEVSQKIRGTLKRNATIFASGTLRLHPVYEASNNKYYVSPVVHVSMPTGTLAVIT
modifications: [35S]-methionine labelled
notes: KREPA2 of T. brucei, the KREPA2 open reading frame, expressed untagged (63 kDa); source: in vitro translated (TNT reticulocyte lysate coupled transcription and translation system, Promega)
binds: all assays above
